Measurements reported in PubChem BioAssay AID743458 (Peter MacCallum Cancer Centre, 2014).
The whole screen tested about 1,800 reagents; this is a part drawn at random. 732 of all reagents (41%) were called active. 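Calls are per siRNA reagent; a gene was deemed confirmed only if most of its four siRNAs scored.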 Reagents against one gene are numbered here.

- Purpose: 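Identify genes whose loss lifts vorinostat resistance in colon cancer cells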 (follow-up of hits)
- Cell system: human HCT116-VR colon cancer cells made resistant to vorinostat
- Reagents: single siRNA or pool against human genes, 25 nM per single siRNA
- Duration: about 72 h after transfection, including 24 h of drug
- Challenge: vorinostat, 2.5 µM final, for 24 h
- Read-out: 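Live-cell fluorescent viability and luminescent caspase 3/7 activity after vorinostat treatment, background subtracted, mean of duplicate plates, as fold change over mock-transfected wells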
- Scale: viability relative to mock: higher = more living cells than mock; caspase activity relative to mock: higher = more apoptosis than mock
- Call rule: 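An siRNA counts as active if classed as reduced viability or as caspase activation, otherwise inactive; a hit class needed wells that remained healthy in the absence of drug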

no.	Gene	reagent no.	viability relative to mock	caspase activity relative to mock	viability hit class	caspase hit class	call
1	MSANTD1 (Myb/SANT DNA binding domain containing 1)	1	0.82	4.63	no change	caspase activation	active
2	MSANTD1 (Myb/SANT DNA binding domain containing 1)	2	0.16	4.05	reduced viability	caspase activation	active
3	MSANTD1 (Myb/SANT DNA binding domain containing 1)	3	0.9	2.65	no change	caspase activation	active
4	MSANTD1 (Myb/SANT DNA binding domain containing 1)	4	0.78	2.14	no change	no change	inactive
5	CAMK1 (calcium/calmodulin dependent protein kinase I)	1	0.96	0.84	no change	no change	inactive
6	CAMK1 (calcium/calmodulin dependent protein kinase I)	2	1.17	1.75	no change	no change	inactive
7	CAMK1 (calcium/calmodulin dependent protein kinase I)	3	0.72	1.82	no change	no change	inactive
8	CAMK1 (calcium/calmodulin dependent protein kinase I)	4	0.31	3.03	reduced viability	caspase activation	active
9	IFNW1 (interferon omega 1)	1	0.94	1.4	no change	no change	inactive
10	IFNW1 (interferon omega 1)	2	0.26	4.12	no change	no change	inactive
11	IFNW1 (interferon omega 1)	3	0.86	0.94	no change	no change	inactive
12	IFNW1 (interferon omega 1)	4	0.75	1.34	no change	no change	inactive
13	SALL1 (spalt like transcription factor 1)	1	1.02	1.95	no change	no change	inactive
14	SALL1 (spalt like transcription factor 1)	2	0.86	2.83	no change	caspase activation	active
15	SALL1 (spalt like transcription factor 1)	3	0.4	0.94	reduced viability	no change	active
16	SALL1 (spalt like transcription factor 1)	4	0.76	1.5	no change	no change	inactive
17	NYX (nyctalopin)	1	1.03	1.16	no change	no change	inactive
18	NYX (nyctalopin)	2	0.18	4.38	reduced viability	caspase activation	active
19	NYX (nyctalopin)	3	0.67	2.01	no change	no change	inactive
20	NYX (nyctalopin)	4	0.92	1.02	no change	no change	inactive
21	CLTB (clathrin light chain B)	1	0.44	4.09	reduced viability	caspase activation	active
22	CLTB (clathrin light chain B)	2	0.82	1.9	no change	no change	inactive
23	CLTB (clathrin light chain B)	3	0.68	3.36	no change	caspase activation	active
24	CLTB (clathrin light chain B)	4	0.62	2.1	no change	no change	inactive
25	DUSP18 (dual specificity phosphatase 18)	1	0.85	2.06	no change	no change	inactive
26	DUSP18 (dual specificity phosphatase 18)	2	0.79	2.64	no change	caspase activation	active
27	DUSP18 (dual specificity phosphatase 18)	3	0.86	0.84	no change	no change	inactive
28	DUSP18 (dual specificity phosphatase 18)	4	0.94	1.39	no change	no change	inactive
29	HYAL2 (hyaluronidase 2)	1	0.97	2.28	no change	no change	inactive
30	HYAL2 (hyaluronidase 2)	2	0.56	6.38	reduced viability	caspase activation	active
31	HYAL2 (hyaluronidase 2)	3	0.47	2.06	reduced viability	no change	active
32	HYAL2 (hyaluronidase 2)	4	0.86	1.6	no change	no change	inactive
33	DPPA5 (developmental pluripotency associated 5)	1	0.67	2.98	no change	caspase activation	active
34	DPPA5 (developmental pluripotency associated 5)	2	0.62	4.03	no change	caspase activation	active
35	DPPA5 (developmental pluripotency associated 5)	3	0.86	2.61	no change	caspase activation	active
36	DPPA5 (developmental pluripotency associated 5)	4	0.86	1.87	no change	no change	inactive
37	SEPHS1 (selenophosphate synthetase 1)	1	0.98	1.48	no change	no change	inactive
38	SEPHS1 (selenophosphate synthetase 1)	2	0.7	2.77	no change	caspase activation	active
39	SEPHS1 (selenophosphate synthetase 1)	3	0.61	4.21	no change	caspase activation	active
40	SEPHS1 (selenophosphate synthetase 1)	4	1.04	1.38	no change	no change	inactive
